Literature values, collected in US20220259252A1, “4'-ETHYNYL-2'-DEOXYADENOSINE DERIVATIVES AND THEIR USE IN HIV THERAPY” (priority 2019, published 2022).
Some results were stated once for a whole list of compounds, not compound by compound. At least one compound was matched to its structure with a doubt left.

Tested on: HIV with M184V mutation
Settings: M184V mutation selected on a regimen containing 3TC/FTC; cited from earlier work

Nc1ccn([C@@H]2CS[C@H](CO)O2)c(=O)n1 [Example 3TC, lamivudine]
reduction of susceptibility by M184V mutation: > 100 fold
